Results are given in words; binding and its absence hold for the method and conditions named. Binding seen in cells or lysates may run through a third protein. Some binding calls cover weakened binding; strength is not graded here.
Biological target: T1, aminoacylase 1 (ACY1) (mouse (endogenous in mouse spinal cord)) (UniProt Q99JW2)
T1 sequence: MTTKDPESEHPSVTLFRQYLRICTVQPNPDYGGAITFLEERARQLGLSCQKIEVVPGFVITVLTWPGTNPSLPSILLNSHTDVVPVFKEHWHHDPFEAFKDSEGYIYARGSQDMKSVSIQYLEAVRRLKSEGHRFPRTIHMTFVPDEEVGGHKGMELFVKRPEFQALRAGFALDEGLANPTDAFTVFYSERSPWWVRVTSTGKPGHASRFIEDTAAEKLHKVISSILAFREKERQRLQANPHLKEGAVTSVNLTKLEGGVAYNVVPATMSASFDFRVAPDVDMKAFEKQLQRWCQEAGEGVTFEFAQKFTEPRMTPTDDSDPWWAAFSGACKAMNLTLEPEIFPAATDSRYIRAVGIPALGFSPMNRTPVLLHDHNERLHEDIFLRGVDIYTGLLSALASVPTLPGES
Experiment: co-IP; mouse spinal cord proteins (RIPA lysis buffer) incubated with ACY1 antibody (AF2700) and protein A/G; after washing SDS-PAGE and blot with SphK1 antibody (sc-365401)

Chains of the proteins cited; added tags and fusions are not shown.
UniProt Q8CI15: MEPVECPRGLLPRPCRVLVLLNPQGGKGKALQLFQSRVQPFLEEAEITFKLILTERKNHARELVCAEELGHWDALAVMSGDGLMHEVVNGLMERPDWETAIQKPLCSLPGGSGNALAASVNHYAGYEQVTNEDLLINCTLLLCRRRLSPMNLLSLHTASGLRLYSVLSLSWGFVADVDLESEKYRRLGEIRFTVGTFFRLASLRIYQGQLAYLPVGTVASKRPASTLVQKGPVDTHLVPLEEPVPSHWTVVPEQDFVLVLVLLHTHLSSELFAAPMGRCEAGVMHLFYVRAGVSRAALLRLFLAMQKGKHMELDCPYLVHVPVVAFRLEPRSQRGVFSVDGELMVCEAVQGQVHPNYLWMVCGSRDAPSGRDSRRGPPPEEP

binding: binds
Substance: sphingosine kinase 1 (SphK1) (from UniProt Q8CI15 1-382) (enzyme)

Reference: PMC10291574
